Test results taken from US8673852B2, “Methods of treating neuronal disorders using MNTF peptides and analogs thereof” (Genervon Biopharmaceuticals, LLC, priority 2006, dated 2014).
Not every detail of the peptide structures is certain; ends, links or a residue may be inferred. Marks after values point to notes of the source that are not given here. Ends that are not written are not given here.

Assays:
[1] = tested on: transected femoral nerve rat model; conditions: optimal dose, p<0.0001; cited from earlier work
[2] = tested on: rat sciatic nerve transection; conditions: dose response manner, p<0.0002 at the optimal dose; cited from earlier work
[3] = tested on: permanent middle cerebral artery occlusion (MCAO) rat model; experiment: Permanent middle cerebral artery occlusion (MCAO) rat model, 28 days; conditions: for Infarct Volume (mm^3) / Fluoro-jade (# of cells) / TNF levels (% of control): day 28; for CBF after drug administration: 1 hour after administration, percentages of the baseline value; for Forelimb placing test: Test Score / Hindlimb placing test: Test Score / Balance Beam test: Test Score: 28 days; for Hindlimb placing test: Test Score: range 0-6; for Balance Beam test: Test Score: scale 1 to 7; for Fluoro-jade (# of cells) / TNF levels (% of control): brain sections; for % Reduction in Infarct Volume: vs vehicle
ALS mice = experiment: Amyotrophic lateral sclerosis (ALS) mouse model (G93A SOD mutation); type: in vivo; conditions: for Percent increase in clinical score / Percent increase in grip strength / Percent increase in rota-rod performance / Percent increase in age at death / Percent increase in age of onset: vs vehicle; for Percent increase in age at death / Percent increase in age of onset: listed as GM604
SH-SY5Y cells = experiment: Cell culture model of Parkinson's disease: SH-SY5Y cell viability (MTT) with or without salsolinol; type: cell-based, human
Procedure: SH-SY5Y cells were purchased from American Type Culture Collection (Manassas, Va.) and cultured in a complete media containing minimum essential media, Hams F-12 media and Hanks Balanced Salt Solution Gibco-BRL) in a ratio of 2:1:1. The media also contained 10% fetal bovine serum along with penicillin (50 U/ml) and streptomycin ([…]). The cells were cultured in flasks and kept in a humidified incubator containing 5% CO2 in air at 37° C. The media was changed every 2-3 days.
Prior to manipulation, cultures were assigned to different treatment groups based on a randomized block design.
For cell viability experiments, SH-SY5Y cells (0.5×10^5/well) were cultured in a 96-well cell culture plate and treated with (±) SAL (Sigma, St. Louis, Mo.) alone or along with different concentrations of (GM6) (Genervon), with or without Wortmannin (WRT) (Sigma, St. Louis, Mo.), a phosphatidylinositol-3-kinase (PI-3 kinase) inhibitor, for 24 h. Cell viability was determined by Thiazolyl blue (MTT) assay.

**Q.** For FSRYAR [GM6, FSRYAR], which “motoneurons projected correctly to muscle relative to motoneurons projected incorrectly to the skin” value [1] is on record?
**A.** Its value is “three times”.

**Q.** What about the motoneuron regeneration [2] of the same substance?
**A.** Its motoneuron regeneration is “significant improvement of motoneuron regeneration”.

**Q.** And the “Infarct Volume (mm^3)” value ([3]; 2.5 mg/kg IV 3 hours after onset of ischemia)?
**A.** Its value is 217.5 ± 48.44 mm^3.

**Q.** What about the “CBF after drug administration” value ([3]; 2.5 mg/kg) of the same substance?
**A.** Its value is 24.10 ± 2.424.

**Q.** And the “Forelimb placing test: Test Score” value ([3]; 2.5 mg/kg, higher numbers denote greater deficits)?
**A.** The value was 11.10 ± 2.514.

**Q.** What about the “Hindlimb placing test: Test Score” value ([3]; 2.5 mg/kg) of the same substance?
**A.** The value was 3.9 ± 1.20.

**Q.** And the “Balance Beam test: Test Score” value ([3]; 2.5 mg/kg)?
**A.** The value was 4.100 ± 0.9944.

**Q.** And the “Fluoro-jade (# of cells)” value ([3]; 2.5 mg/kg)?
**A.** The value was 4899 ± 1248 # of cells.

**Q.** What about the “TNF levels (% of control)” value ([3]; 2.5 mg/kg) of the same substance?
**A.** Its value is 64.24 ± 16.18 % of control.

**Q.** What about the “Spontaneous activity: Test Score” value ([3]; 2.5 mg/kg, scale 0 (no movement) to 3 (unrestricted movement)) of the same substance?
**A.** The value was 0.9 ± 0.74.

**Q.** And the “% Reduction in Infarct Volume” value ([3]; 2.5 mg/kg)?
**A.** The value was 23.3%.

**Q.** And the “Infarct Volume (mm^3)” value ([3]; 10 mg/kg IV 3 hours after onset of ischemia)?
**A.** The value was 159.6 ± 44.84 mm^3.

**Q.** And the “CBF after drug administration” value ([3]; 10 mg/kg)?
**A.** The value was 25.40 ± 2.459.

**Q.** And the “Forelimb placing test: Test Score” value ([3]; 10 mg/kg)?
**A.** The value was 7.800 ± 2.466.

**Q.** What about the “Hindlimb placing test: Test Score” value ([3]; 10 mg/kg) of the same substance?
**A.** The value was 2.7 ± 0.95.

**Q.** What about the “Balance Beam test: Test Score” value ([3]; 10 mg/kg) of the same substance?
**A.** Its value is 3.200 ± 0.7888.

**Q.** What about the “Fluoro-jade (# of cells)” value ([3]; 10 mg/kg) of the same substance?
**A.** Its value is 3504 ± 959.4 # of cells.

**Q.** What about the “TNF levels (% of control)” value ([3]; 10 mg/kg) of the same substance?
**A.** Its value is 49.03 ± 12.60 % of control.

**Q.** What about the “Spontaneous activity: Test Score” value ([3]; 10 mg/kg, scale 0 to 3) of the same substance?
**A.** Its value is 1.6 ± 0.52.

**Q.** And the “% Reduction in Infarct Volume” value ([3]; 10 mg/kg)?
**A.** Its value is 43.6%.

**Q.** And the “Infarct Volume (mm^3)” value ([3]; 20 mg/kg IV 3 hours after onset of ischemia)?
**A.** Its value is 124.3 ± 33.82 mm^3.

**Q.** And the “CBF after drug administration” value ([3]; 20 mg/kg)?
**A.** The value was 29.50 ± 3.923.

**Q.** And the “Forelimb placing test: Test Score” value ([3]; 20 mg/kg)?
**A.** Its value is 6.300 ± 2.003.

**Q.** And the “Hindlimb placing test: Test Score” value ([3]; 20 mg/kg)?
**A.** Its value is 2.0 ± 0.82.

**Q.** What about the “Balance Beam test: Test Score” value ([3]; 20 mg/kg) of the same substance?
**A.** The value was 2.700 ± 0.4930.

**Q.** And the “Fluoro-jade (# of cells)” value ([3]; 20 mg/kg)?
**A.** Its value is 2889 ± 719.6 # of cells.

**Q.** What about the “TNF levels (% of control)” value ([3]; 20 mg/kg) of the same substance?
**A.** Its value is 32.72 ± 11.15 % of control.

**Q.** And the “Spontaneous activity: Test Score” value ([3]; 20 mg/kg, scale 0 to 3)?
**A.** Its value is 1.9 ± 0.74.

**Q.** What about the “% Reduction in Infarct Volume” value ([3]; 20 mg/kg) of the same substance?
**A.** Its value is 56.2%.

**Q.** What about the “Age at death (median)” value (ALS mice; 1 mg/kg IV daily from day 80) of the same substance?
**A.** Its value is 146.5.

**Q.** What about the “Age of disease onset (median)” value (ALS mice; 1 mg/kg IV daily from day 80) of the same substance?
**A.** The value was 128.

**Q.** And the “Clinical score: Age (median)” value (ALS mice; 1 mg/kg IV daily from day 80)?
**A.** The value was 139.

**Q.** And the “Grip strength: Age (median)” value (ALS mice; 1 mg/kg IV daily from day 80)?
**A.** Its value is 137.

**Q.** And the “Rota-rod analysis: Age (median)” value (ALS mice; 1 mg/kg IV daily from day 80)?
**A.** Its value is 141.

**Q.** And the “Percent increase in clinical score” value (ALS mice; 1 mg/kg IV daily)?
**A.** Its value is 23%.

**Q.** And the “Percent increase in grip strength” value (ALS mice; 1 mg/kg IV daily)?
**A.** The value was 14%.

**Q.** And the “Percent increase in rota-rod performance” value (ALS mice; 1 mg/kg IV daily)?
**A.** The value was 14%.

**Q.** And the “Percent increase in age at death” value (ALS mice; 1 mg/kg IV daily)?
**A.** Its value is 16%.

**Q.** What about the “Percent increase in age of onset” value (ALS mice; 1 mg/kg IV daily) of the same substance?
**A.** Its value is 12%.

**Q.** And the “Age at death (median)” value (ALS mice; 5 mg/kg IV daily from day 80)?
**A.** The value was 163.5.

**Q.** What about the “Age of disease onset (median)” value (ALS mice; 5 mg/kg IV daily from day 80) of the same substance?
**A.** The value was 145.5.

**Q.** And the “Clinical score: Age (median)” value (ALS mice; 5 mg/kg IV daily from day 80)?
**A.** Its value is 173.

**Q.** And the “Grip strength: Age (median)” value (ALS mice; 5 mg/kg IV daily from day 80)?
**A.** The value was 169.

**Q.** What about the “Rota-rod analysis: Age (median)” value (ALS mice; 5 mg/kg IV daily from day 80) of the same substance?
**A.** Its value is 174.5.

**Q.** What about the “Percent increase in clinical score” value (ALS mice; 5 mg/kg IV daily) of the same substance?
**A.** The value was 53%.

**Q.** And the “Percent increase in grip strength” value (ALS mice; 5 mg/kg IV daily)?
**A.** The value was 41%.

**Q.** And the “Percent increase in rota-rod performance” value (ALS mice; 5 mg/kg IV daily)?
**A.** The value was 41%.

**Q.** And the “Percent increase in age at death” value (ALS mice; 5 mg/kg IV daily)?
**A.** The value was 30%.

**Q.** And the “Percent increase in age of onset” value (ALS mice; 5 mg/kg IV daily)?
**A.** The value was 27%.

**Q.** What about the “Percent Change in Cell number” value (SH-SY5Y cells; GM6 0.1 mg/ml, compared to Vehicle treated cells (Group 1)) of the same substance?
**A.** Its value is “+0.6%**”.

**Q.** What about the “Percent Change in Cell number” value (SH-SY5Y cells; GM6 1 mg/ml, compared to Vehicle treated cells (Group 1)) of the same substance?
**A.** Its value is “+7.4%**”.

**Q.** And the “Percent Change in Cell number” value (SH-SY5Y cells; GM6 10 mg/ml + WRT (10 μM), compared to Vehicle treated cells (Group 1))?
**A.** Its value is −6.7%**.

**Q.** What about the “Percent Change in Cell number” value (SH-SY5Y cells; Sal + GM6 0.1 mg/ml, compared to Salsolinol treated cells (Group 6)) of the same substance?
**A.** Its value is “+80.5%*”.

**Q.** What about the “Percent Change in Cell number” value (SH-SY5Y cells; Sal + GM6 1 mg/ml, compared to Salsolinol treated cells (Group 6)) of the same substance?
**A.** Its value is “+133.5%*”.

**Q.** And the “Percent Change in Cell number” value (SH-SY5Y cells; Sal + GM6 10 mg/ml + WRT (10 μM), compared to Salsolinol treated cells (Group 6))?
**A.** Its value is “+13.4%*”.

**Q.** And the “Percent Change in Cell number” value (SH-SY5Y cells; Sal + GM6 10 mg/ml, compared to Salsolinol treated cells (Group 6))?
**A.** Its value is “+162%*”.
